These are yes or no findings as the source states them, for the method shown. In cells and extracts the contact can be indirect. These calls come from enrichment with a bait or labelling near it, and not all partners need be listed. No binding means not detected with the bait. Where a sequence is shown, tags or fusion partners need not be part of it. Each block holds one molecule with its values, some of them ahead of it.
Biological target: T1, Flag-tagged full-length SNIP1 (Smad Nuclear Interacting Protein 1) (UniProt Q8BIZ6)
T1 sequence: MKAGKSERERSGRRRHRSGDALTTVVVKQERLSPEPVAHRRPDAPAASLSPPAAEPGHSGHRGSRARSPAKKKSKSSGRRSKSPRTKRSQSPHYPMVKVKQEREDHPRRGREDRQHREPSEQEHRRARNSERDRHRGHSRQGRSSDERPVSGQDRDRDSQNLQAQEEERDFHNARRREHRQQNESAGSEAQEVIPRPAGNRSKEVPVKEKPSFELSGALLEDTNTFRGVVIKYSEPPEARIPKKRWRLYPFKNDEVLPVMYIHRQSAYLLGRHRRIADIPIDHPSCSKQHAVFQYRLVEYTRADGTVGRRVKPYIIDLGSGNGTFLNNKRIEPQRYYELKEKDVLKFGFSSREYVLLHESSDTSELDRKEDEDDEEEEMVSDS
Experiment: affinity purification with mass spectrometry; Flag-co-IP from N2a cells stably expressing SNIP1-Flag, anti-FLAG M2 magnetic beads, IP buffer (150 mmol/L KCl, 25 mmol/L Tris pH 7.4, 5 mmol/L EDTA, 1% Nonidet P-40), 4 °C overnight; LC-MS/MS; three biological replicates

The chains behind the UniProt entries cited, without tags or fusion partners.
UniProt O35691: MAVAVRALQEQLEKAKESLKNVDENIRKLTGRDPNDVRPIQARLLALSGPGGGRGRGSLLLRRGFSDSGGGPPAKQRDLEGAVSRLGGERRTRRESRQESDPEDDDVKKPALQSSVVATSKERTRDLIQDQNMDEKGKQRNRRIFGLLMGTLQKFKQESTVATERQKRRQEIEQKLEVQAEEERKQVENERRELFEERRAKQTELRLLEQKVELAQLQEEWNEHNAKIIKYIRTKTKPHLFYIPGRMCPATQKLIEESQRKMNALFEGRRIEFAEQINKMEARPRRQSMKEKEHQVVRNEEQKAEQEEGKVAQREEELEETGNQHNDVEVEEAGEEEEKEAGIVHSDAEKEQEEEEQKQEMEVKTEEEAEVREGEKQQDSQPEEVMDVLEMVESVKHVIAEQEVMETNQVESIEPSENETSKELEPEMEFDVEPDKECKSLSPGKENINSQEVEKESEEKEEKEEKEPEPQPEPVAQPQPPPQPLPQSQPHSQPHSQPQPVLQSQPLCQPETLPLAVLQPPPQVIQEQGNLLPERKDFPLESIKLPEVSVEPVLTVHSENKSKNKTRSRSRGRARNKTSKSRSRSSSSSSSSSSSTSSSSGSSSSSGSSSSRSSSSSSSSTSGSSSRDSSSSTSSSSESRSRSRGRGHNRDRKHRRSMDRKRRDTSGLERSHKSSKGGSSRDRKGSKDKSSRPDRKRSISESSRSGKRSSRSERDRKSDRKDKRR
UniProt Q6P4T2: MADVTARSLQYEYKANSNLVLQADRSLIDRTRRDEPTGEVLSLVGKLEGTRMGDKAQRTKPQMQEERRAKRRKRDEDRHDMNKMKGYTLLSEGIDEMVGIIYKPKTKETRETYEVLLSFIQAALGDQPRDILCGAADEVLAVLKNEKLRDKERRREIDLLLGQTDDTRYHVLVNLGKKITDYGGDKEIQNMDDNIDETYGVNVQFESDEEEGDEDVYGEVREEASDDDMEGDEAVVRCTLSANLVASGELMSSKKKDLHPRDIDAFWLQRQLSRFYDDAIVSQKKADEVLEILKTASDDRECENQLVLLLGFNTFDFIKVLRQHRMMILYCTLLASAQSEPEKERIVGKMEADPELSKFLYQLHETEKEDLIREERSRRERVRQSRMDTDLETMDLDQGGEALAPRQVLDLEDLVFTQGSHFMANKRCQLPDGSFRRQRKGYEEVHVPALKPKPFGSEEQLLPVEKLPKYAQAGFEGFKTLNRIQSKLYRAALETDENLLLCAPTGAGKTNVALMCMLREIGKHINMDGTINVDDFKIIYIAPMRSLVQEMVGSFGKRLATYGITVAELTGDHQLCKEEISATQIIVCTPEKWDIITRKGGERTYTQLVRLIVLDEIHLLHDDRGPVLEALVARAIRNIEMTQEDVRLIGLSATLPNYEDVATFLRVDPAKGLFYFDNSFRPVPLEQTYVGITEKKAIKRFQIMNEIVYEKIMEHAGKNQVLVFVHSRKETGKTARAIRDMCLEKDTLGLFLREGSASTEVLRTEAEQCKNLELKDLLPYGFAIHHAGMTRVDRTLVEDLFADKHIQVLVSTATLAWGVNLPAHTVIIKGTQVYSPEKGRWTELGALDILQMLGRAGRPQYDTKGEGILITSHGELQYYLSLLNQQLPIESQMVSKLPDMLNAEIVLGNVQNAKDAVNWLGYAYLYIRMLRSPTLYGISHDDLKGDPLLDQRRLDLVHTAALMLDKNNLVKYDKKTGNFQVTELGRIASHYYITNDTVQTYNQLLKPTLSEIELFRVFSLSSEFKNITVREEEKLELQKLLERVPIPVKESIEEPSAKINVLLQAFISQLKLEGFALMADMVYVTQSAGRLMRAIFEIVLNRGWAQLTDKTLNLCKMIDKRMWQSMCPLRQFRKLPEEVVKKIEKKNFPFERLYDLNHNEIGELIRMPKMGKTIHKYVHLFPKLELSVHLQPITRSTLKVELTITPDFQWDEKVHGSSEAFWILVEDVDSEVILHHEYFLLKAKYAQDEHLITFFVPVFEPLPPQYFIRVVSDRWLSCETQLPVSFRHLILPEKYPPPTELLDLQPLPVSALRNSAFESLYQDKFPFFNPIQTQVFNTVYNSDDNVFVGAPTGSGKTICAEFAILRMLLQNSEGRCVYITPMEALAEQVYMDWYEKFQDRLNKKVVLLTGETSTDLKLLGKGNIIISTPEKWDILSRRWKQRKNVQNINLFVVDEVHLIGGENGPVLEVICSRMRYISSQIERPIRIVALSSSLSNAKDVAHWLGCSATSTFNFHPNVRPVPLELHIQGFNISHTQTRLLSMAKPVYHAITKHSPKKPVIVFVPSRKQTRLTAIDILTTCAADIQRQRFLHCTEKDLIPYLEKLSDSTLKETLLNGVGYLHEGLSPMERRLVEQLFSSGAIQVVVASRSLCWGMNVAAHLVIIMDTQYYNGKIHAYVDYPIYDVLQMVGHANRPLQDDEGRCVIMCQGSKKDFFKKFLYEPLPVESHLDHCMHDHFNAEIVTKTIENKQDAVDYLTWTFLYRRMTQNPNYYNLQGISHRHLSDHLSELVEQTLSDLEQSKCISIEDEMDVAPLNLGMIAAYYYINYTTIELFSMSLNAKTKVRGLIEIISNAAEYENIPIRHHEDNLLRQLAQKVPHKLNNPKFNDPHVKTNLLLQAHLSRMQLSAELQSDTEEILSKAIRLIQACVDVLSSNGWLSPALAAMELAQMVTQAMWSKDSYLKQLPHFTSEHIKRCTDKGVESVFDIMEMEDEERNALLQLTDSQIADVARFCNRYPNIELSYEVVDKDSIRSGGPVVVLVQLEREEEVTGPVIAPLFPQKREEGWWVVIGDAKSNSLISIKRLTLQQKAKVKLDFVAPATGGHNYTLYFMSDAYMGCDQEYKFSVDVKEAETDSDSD
UniProt Q8BTI8: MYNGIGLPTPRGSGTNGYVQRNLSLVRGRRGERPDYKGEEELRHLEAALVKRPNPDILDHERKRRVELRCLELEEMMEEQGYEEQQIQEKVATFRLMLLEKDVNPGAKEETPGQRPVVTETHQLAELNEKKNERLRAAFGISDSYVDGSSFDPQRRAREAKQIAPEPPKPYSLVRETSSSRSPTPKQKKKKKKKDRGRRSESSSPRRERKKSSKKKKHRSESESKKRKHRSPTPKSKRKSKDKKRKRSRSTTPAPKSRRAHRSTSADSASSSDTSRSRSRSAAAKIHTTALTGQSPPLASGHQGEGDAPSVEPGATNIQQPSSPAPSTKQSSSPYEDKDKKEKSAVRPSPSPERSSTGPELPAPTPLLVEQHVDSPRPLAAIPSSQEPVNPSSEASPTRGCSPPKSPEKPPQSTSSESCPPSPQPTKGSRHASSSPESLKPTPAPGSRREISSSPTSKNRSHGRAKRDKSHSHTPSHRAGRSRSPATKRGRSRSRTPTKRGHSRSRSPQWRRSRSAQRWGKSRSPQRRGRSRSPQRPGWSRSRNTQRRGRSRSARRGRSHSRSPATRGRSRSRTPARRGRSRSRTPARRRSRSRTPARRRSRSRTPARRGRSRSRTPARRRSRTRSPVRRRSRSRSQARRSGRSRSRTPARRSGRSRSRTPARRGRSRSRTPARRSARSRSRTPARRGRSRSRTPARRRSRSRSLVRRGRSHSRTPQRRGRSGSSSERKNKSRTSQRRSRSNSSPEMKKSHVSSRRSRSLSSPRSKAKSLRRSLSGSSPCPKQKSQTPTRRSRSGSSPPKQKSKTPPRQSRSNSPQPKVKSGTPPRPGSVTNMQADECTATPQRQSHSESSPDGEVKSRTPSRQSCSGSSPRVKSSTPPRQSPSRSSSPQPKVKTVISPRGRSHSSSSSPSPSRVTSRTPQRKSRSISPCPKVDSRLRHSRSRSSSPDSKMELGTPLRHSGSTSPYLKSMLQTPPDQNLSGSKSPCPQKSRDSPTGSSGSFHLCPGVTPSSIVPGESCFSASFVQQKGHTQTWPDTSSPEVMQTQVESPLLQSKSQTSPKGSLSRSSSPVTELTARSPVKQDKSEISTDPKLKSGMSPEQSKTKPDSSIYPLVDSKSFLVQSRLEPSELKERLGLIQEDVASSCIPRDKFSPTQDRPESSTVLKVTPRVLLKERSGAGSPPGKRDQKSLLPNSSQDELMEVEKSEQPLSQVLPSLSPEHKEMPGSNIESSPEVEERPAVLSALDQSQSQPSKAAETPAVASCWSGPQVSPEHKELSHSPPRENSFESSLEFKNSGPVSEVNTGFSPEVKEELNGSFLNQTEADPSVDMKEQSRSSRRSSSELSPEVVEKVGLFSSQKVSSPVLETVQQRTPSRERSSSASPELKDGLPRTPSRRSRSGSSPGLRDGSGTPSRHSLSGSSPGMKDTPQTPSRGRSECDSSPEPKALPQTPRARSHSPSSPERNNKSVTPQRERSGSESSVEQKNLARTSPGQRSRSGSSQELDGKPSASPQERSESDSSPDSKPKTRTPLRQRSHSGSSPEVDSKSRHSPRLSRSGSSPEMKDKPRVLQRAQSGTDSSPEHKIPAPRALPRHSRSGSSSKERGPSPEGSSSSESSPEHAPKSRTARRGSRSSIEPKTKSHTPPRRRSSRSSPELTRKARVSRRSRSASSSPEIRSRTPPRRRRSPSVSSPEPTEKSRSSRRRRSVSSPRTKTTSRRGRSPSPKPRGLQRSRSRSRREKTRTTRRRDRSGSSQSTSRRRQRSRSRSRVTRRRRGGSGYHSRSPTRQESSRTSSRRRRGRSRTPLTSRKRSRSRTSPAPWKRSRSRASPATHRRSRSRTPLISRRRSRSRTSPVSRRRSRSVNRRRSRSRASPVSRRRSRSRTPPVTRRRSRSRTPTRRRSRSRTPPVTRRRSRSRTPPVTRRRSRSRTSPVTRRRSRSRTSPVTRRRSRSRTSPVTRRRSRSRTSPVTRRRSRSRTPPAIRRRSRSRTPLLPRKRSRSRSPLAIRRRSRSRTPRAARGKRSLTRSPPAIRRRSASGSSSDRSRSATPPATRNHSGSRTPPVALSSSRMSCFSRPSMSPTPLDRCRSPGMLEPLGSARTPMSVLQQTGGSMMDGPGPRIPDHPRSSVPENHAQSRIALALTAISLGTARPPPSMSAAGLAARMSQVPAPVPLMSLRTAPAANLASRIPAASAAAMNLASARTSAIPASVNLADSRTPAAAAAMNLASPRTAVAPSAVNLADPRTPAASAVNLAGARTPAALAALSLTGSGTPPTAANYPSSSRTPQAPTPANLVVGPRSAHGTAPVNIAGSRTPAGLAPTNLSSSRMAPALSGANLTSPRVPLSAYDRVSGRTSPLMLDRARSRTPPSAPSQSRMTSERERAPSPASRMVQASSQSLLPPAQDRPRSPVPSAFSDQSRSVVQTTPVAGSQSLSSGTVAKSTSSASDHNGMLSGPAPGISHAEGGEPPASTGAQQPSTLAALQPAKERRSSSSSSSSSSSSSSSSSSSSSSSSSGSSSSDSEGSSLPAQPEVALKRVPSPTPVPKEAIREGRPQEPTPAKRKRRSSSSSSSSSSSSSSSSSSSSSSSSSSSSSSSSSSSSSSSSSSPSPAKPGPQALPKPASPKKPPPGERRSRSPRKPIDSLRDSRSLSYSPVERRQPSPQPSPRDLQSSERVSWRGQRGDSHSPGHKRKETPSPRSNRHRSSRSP

Molecule: PNN (from UniProt O35691 1-725)
binding: binds

Molecule: BRR2 (from UniProt Q6P4T2 1-2136)
binding: binds

B1: ACIN1 (protein, UniProt Q9JIX8 1-1338)
chain: MWGRKRPNSSGETRGILSGNRGVDYGSGRGQSGPFEGRWRKLPKMPEAVGTDPSTSRKMAELEEVTLDGKPLQALRVTDLKAALEQRGLAKSGQKSALVKRLKGALMLENLQKHSTPHAAFQPNSQIGEEMSQNSFIKQYLEKQQELLRQRLEREAREAAELEEASAESEDEMTHPEGVASLLPPDFQSSLNRPELELSTHSPRKSSSFSEEKGESDDEKPRKGERRSSRVRQAKSKLPEYSQTAEEEEDQETPSRNLRVRADRNLKIEEEEEEEEEEEDDDDEEEEEVDEAQKSREAEAPTLKQFEDEEGEERTRAKPEKVVDEKPLNIRSQEKGELEKGGRVTRSQEEARRSHLARQQQEKETQIVSLPQEENEVKSSQSLEEKSQSPSPPPLPEDLEKAPVVLQPEQIVSEEETPPPLLTKEASSPPTHIQLQEEMEPVEGPAPPVLIQLSPPNTDAGAREPLASPHPAQLLRSLSPLSGTTDTKAESPAGRVSDESVLPLAQKSSLPECSTQKGVESEREKSAPLPLTVEEFAPAKGITEEPMKKQSLEQKEGRRASHALFPEHSGKQSADSSSSRSSSPSSSSSPSRSPSPDSVASRPQSSPGSKQRDGAQARVHANPHERPKMGSRSTSESRSRSRSRSRSASSSSRKSLSPGVSRDSNTSYTETKDPSCGQEAAAPSGPQLQVLEPKEKAPTFSASVRGRHLSHPEPEQQHVIQRLQPEQGSPKKCEAEEAEPPAATQPQTSETQISHLLESERTHHTVEEKEEVTMDTSENRPENEVPEPPLPVADQVSNDERPEGGAEEEEKKESSMPKSFKRKISVVSATKGVQAGNSDTEGGQPGRKRRWGASTAATQKKPSISITTESLKSLIPDIKPLAGQEAVVDLHADDSRISEDETERNGDDGTHDKGLKICRTVTQVVPAEGQENGQREEEEEKEPEAELPAPPQVSVEVALPPPVEHEVKKVTLGDTLTRRSISQQKSGVSITIDDPVRTAQVPSPPRGKISNIVHISNLVRPFTLGQLKELLGRTGTLVEEAFWIDKIKSHCFVTYSTVEEAVATRTALHGVKWPQSNPKFLCADYAEQDELDYHRGLLVDRPSETKAEEQGAPRPLHPPPPPPVQPPPHPRAEQREQERAVREQWAEREREMERRERTRSEREWDRDKVREGPRSRSRSRDRRRKERAKSKEKKSEKKEKAQEEPPAKLLDDLFRKTKAAPCIYWLPLTESQIVQKEAEQAERAKEREKRRKEREEEEQKEREKEAERERNRQLEREKRREHSRERERDRERERDRGDRERERERDRDRGRERDRRDTKRHSRSRSRSTPVRDRGGRR
binding: binds

B3: RBMX2 (protein, UniProt Q8R0F5 1-326)
chain: MNPLTKVKLINELNEREVQLGVAEKVSWHSEYKHSAWIFVGGLPYELTEGDIICVFSQYGEIVNINLVRDKKTGKSKGFCFLCYEDQRSTVLAVDNFNGIKIKGRTIRVDHVSNYRAPQESEDVDDVTRELQEKGCGVKTPPSSPPEVSEDEDAKLTKKHKKDKKEKKKRKKEKTEGQAQAEQPSCSRSATVKEKKDERASRKHSSKTSERAQKSEHRESKKSHSGSPDGRSSYHARAEDPECKARKEKPKHEHKSASRREAEEKSRERERGRSSGTHSGRHRGHSDGRSHRSRSRSRSPDKSHRHKKYRHSRERDSYHGSDRRHH
binding: no binding

B5: RNPS1 (RNA binding protein with serine-rich domain 1) (protein, UniProt Q99M28 1-305)
chain: MDLSGVKKKSLLGVKENNKKSSTRAPSPTKRKDRSDEKSKDRSKDKGATKESSEKDRGRDKTRKRRSASSGSSSTRSRSSSTSSSGSSTSTGSSSGSSSSSASSRSGSSSTSRSSSSSSSSGSPSPSRRRHDNRRRSRSKSKPPKRDEKERKRRSPSPKPTKVHIGRLTRNVTKDHIMEIFSTYGKIKMIDMPVERMHPHLSKGYAYVEFENPDEAEKALKHMDGGQIDGQEITATAVLAPWPRPPPRRFSPPRRMLPPPPMWRRSPPRMRRRSRSPRRRSPVRRRSRSPGRRRHRSRSSSNSSR
binding: binds

B6: BUD13 (protein, UniProt Q8R149 1-637)
chain: MAAAPPLTKAEYLKRYLSGTDAGLEGGPEAGRKRRKKRPKPGGAGGKGMRIVDDDVGWAAISTAKPEKEEEEDGDLPVVAEFVDERPEEVKQMEAFRSSAKWKLLGGHGEDGHFHHDDQDSSPPRRVRHDTPDTSPPRKARHDTPDPSPPRKARHDTPDTSPPRKARHDTPDPSPPRKARHDTPDPSPPRRVRHDTPDLSPPRRVRHDTPDLSPPRRVRHDTPDPSPPRRVRHDLDASPPRKSHRNSSAVSPRRGHHGSLGTSSPRQTHNHSPTAAQHRRTLDSSGTQHLRRAHHESPDLELHKAKSSKAAERAPSKAASQSGLGPSHPSLSTNSKYEHDSDLSPPRKRQAKAHFEAKKQLDSKGVYQKASDSDLSPPRKKKNSGHQDSDSDLSPPRNRPRRQSSDSDLSPPRRRQRTKSSDSDLSPPRRSPRPGKKTAHMYSGAKTGLVTDVQREHQELKKQDQDTTDLGAQFEFTETVFRDKSGRKRNLKLERLEQRRKAEKDSERDELYAQWGKGLAQSRQQQQNVEDAMKEMQKPLARYIDDEDLDRMLREQEREGDPMANFIKKNKAKENKNKKVKPRYSGPAPPPNRFNIWPGYRWDGVDRSNGFEQKRFARLASKKAVEELAYKWSVEDM
binding: no binding

Now from value to molecule:

binding: binds
Molecule: SRm300 (from UniProt Q8BTI8 1-2703)

binding: binds
B2: SRSF7 (protein, UniProt Q8BL97 1-267)
chain: MRSSARGRPLQAATAFFLSLFFFLRRFERGFWLWGGDSETKVYVGNLGTGAGKGELERAFSYYGPLRTVWIARNPPGFAFVEFEDPRDAEDAVRGLDGKVICGSRVRVELSTGMPRRSRFDRPPARRPFDPNDRCYECGEKGHYAYDCHRYSRRRRSRSRSRSHSRSRGRRYSRSRSRSRGRRSRSASPRRSRSVSLRRSRSASLRRSRSGSIIGSRYFQSRSRSRSRSRSISRPRSSRSKSRSPSPKRSRSPSGSPHRSASPERMD

binding: binds
B4: SFRS16 (protein, UniProt Q8CFC7 1-668)
chain: MWHEARKHERKLRGMMVDYKKRAERRREYYEKIKKDPAQFLQVHGRACKVHLDSAVALAAESPVNMMPWQGDTNNMIDRFDVRAHLDHIPDYTPPLLTTISPEQESDERKCNYERYRGLVQNDFAGISEEQCLYQIYIDELYGGLQRPSEDEKKKLAEKKASIGYTYEDSTVAEVEKVAEKPEEEESPAEEESNSDEDEVIPDIDVEVDVDELNQEQVADLNKQATTYGMADGDFVRMLRKDKEEAEAIKHAKALEEEKAMYSGRRSRRQRREFREKRLRGRKISPPSYARRDSPTYDPYKRSPSESSSESRSRSRSPSPGREEKITFITSFGGSDEEAAAAAAAAAASGAAPGKPPAPPQTGGPAPGRNASTRRRSSSSSASRTSSSRSSSRSSSRSRRGYYRSGRHARSRSRSWSRSRSRSRRYSRSRSRGRRHSDGGSRDGHRYSRSPARRGGYVPRRRSRSRSRSGDRYKRGARGPRHHSSSHSRSSWSLSPSRSRSVTRSGSRSQSRSRSRSQSHSQSQSHSPSPPREKLTRPAASPAVGEKLKKTEPAAGKETGAAKPKLTPQERLKLRMQKALNRQFKADKKAAQEKMIQQEHERQEREDELRAMARKIRMKERERREKEREEWERQYSRQSRSPSPRYSREYSSSRRRSRSRSRSPHYRH

From article PMC10166177
